Results on one molecule are retold here after paper doi:10.1101/2025.04.16.649141.

Results are given in words; binding and its absence hold for the method and conditions named. Some binding calls cover weakened binding; strength is not graded here. Sequences can lack the tags named with a protein.

The target in this experiment is T1, membrane-anchored BMP4 (myc-BMP4-GPI) (Xenopus) (UniProt P30885).
T1 sequence: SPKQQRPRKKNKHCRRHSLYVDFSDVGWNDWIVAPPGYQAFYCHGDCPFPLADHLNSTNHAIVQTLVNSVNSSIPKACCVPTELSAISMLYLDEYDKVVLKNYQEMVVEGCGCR

B1: Cerberus fused with monomeric Venus (Cer-mV) (protein, UniProt P70041 21-270)
chain: KHSEGRERTKTYSLNSRGYFRKERGARRSKILLVNTKGLDEPHIGHGDFGLVAELFDSTRTHTNRKEPDMNKVKLFSTVAHGNKSARRKAYNGSRRNIFSRRSFDKRNTEVTEKPGAKMFWNNFLVKMNGAPQNTSHGSKAQEIMKEACKTLPFTQNIVHENCDRMVIQNNLCFGKCISLHVPNQQDRRNTCSHCLPSKFTLNHLTLNCTGSKNVVKVVMMVEECTCEAHKSNFHQTAQFNMDTSTTLHH
On to B1, for which the binding result is recorded as “binds”.
